Data taken from the supplement of paper PMC10849652.
This is one part of the list.

Chains of the proteins cited; added tags and fusions are not shown. Lines headed by an entry give the natural chain unless they say otherwise; changes in a name come on top.
UniProt O94889: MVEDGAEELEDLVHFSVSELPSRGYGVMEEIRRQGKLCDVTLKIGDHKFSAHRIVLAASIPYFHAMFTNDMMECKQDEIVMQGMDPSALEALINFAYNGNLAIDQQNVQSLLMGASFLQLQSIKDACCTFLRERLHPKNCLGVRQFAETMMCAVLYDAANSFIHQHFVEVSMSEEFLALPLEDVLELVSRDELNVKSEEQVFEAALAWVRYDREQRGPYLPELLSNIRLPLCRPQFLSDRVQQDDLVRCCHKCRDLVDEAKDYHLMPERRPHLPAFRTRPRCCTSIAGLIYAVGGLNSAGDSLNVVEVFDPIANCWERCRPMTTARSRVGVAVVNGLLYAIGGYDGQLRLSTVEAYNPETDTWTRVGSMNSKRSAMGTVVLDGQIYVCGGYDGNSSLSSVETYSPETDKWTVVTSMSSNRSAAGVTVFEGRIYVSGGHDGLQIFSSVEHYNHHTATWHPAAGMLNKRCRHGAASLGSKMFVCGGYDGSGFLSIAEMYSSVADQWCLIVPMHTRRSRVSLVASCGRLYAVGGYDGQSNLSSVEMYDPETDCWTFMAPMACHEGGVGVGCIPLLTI
UniProt Q9BVG8: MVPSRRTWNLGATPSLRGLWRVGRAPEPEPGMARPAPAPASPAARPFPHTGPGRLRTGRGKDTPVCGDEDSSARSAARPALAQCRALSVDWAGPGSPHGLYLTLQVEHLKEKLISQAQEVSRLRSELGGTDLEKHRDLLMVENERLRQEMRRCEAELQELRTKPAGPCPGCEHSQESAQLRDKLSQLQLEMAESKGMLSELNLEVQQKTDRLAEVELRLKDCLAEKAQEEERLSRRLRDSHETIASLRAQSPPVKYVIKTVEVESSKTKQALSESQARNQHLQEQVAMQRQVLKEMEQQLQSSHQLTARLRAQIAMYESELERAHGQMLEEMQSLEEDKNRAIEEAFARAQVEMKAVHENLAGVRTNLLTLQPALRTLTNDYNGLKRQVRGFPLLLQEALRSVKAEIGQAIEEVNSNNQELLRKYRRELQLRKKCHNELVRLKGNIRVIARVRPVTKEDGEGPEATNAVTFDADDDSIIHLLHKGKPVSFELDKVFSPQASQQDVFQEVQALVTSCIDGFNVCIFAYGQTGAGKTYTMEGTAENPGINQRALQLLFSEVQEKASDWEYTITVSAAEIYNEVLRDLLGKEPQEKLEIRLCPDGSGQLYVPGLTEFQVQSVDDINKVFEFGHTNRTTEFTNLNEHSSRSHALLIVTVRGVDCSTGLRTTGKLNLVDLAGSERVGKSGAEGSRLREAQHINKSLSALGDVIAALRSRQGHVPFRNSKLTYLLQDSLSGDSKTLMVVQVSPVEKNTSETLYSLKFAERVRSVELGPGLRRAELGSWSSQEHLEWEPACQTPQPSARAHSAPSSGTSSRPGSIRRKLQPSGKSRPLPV
UniProt Q8IXQ5, whole entry, looked up: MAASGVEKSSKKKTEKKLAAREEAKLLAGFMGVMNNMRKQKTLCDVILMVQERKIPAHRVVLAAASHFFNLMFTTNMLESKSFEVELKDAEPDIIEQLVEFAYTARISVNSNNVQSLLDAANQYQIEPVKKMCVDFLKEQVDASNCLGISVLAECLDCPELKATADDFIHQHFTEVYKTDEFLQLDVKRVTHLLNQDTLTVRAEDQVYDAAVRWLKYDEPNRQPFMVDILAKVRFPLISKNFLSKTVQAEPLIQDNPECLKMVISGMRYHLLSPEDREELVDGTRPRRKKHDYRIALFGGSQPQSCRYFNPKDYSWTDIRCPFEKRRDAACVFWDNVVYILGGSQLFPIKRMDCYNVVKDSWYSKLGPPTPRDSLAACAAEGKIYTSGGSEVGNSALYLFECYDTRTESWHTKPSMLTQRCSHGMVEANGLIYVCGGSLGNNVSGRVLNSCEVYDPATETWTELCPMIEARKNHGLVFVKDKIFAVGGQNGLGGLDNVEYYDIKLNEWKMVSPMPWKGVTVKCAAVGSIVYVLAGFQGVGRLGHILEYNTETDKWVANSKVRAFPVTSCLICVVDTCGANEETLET
UniProt Q9H1H9: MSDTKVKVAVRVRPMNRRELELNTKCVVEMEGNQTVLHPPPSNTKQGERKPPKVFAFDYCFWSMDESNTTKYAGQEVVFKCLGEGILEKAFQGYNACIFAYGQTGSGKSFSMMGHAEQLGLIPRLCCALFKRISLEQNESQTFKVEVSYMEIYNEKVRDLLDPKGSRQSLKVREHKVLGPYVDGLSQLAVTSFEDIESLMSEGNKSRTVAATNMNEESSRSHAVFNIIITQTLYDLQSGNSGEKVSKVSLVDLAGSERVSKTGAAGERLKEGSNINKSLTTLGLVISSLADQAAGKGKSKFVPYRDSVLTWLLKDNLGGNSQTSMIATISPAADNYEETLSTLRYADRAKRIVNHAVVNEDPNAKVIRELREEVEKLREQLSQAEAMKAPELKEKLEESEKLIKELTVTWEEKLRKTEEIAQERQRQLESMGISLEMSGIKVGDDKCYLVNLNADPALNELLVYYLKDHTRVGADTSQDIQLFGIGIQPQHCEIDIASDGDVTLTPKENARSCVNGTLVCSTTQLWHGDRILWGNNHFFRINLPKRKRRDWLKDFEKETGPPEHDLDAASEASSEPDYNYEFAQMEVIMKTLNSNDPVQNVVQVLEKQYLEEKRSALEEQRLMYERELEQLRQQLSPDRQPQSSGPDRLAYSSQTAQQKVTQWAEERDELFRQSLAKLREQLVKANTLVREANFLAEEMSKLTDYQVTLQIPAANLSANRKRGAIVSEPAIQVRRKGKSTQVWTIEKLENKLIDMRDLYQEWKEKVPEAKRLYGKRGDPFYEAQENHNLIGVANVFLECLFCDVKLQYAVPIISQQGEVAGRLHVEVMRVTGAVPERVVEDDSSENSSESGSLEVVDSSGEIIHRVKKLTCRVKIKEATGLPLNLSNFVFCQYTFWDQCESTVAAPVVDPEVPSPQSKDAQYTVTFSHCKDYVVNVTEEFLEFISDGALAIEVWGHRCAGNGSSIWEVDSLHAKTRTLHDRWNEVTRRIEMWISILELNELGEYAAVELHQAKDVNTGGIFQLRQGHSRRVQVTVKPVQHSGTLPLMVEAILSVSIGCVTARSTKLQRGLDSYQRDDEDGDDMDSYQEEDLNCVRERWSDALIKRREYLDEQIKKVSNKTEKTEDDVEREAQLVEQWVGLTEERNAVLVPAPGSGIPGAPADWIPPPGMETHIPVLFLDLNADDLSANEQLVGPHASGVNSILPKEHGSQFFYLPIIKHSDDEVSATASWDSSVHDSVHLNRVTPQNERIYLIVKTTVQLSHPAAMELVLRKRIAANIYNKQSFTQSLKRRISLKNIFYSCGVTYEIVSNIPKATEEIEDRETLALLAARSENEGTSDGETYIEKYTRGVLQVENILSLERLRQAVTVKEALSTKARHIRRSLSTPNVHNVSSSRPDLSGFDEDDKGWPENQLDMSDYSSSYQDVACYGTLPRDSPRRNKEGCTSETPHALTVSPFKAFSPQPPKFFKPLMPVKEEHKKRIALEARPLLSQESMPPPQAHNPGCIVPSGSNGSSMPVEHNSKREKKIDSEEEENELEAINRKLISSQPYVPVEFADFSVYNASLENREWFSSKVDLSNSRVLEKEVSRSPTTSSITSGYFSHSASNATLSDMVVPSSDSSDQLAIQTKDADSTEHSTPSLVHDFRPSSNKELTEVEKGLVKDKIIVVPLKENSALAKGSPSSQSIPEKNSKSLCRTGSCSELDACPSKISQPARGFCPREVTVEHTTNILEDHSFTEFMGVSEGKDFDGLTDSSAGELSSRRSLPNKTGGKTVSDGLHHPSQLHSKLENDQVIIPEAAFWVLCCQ
UniProt Q12809: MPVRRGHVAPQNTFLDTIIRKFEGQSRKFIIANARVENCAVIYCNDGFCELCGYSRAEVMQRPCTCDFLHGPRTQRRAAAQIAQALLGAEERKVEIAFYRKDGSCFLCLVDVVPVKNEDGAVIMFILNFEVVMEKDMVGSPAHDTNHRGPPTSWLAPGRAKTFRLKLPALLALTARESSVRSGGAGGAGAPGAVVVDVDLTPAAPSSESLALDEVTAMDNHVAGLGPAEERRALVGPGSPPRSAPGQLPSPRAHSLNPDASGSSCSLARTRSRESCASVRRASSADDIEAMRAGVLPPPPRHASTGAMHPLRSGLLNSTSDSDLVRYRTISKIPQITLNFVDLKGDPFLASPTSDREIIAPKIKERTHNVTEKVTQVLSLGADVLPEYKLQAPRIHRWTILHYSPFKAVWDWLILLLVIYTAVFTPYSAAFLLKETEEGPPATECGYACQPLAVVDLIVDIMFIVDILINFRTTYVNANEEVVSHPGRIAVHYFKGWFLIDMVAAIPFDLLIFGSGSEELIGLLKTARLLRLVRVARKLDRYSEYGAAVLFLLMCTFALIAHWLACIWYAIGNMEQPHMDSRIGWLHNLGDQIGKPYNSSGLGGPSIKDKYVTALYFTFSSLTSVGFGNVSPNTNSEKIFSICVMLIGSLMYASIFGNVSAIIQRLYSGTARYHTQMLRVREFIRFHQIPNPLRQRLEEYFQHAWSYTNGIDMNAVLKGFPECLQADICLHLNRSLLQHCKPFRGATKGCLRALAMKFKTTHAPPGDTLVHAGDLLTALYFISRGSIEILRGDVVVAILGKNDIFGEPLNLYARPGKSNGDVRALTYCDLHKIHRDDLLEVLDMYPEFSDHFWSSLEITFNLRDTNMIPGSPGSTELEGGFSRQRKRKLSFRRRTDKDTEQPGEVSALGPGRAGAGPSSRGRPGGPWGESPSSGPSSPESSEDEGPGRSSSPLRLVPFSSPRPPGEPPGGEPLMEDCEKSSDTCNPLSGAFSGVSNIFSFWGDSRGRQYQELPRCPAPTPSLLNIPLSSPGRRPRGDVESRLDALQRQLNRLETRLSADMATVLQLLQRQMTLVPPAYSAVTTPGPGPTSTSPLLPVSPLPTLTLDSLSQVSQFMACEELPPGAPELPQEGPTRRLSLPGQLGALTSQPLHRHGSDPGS
UniProt Q9H7Z6: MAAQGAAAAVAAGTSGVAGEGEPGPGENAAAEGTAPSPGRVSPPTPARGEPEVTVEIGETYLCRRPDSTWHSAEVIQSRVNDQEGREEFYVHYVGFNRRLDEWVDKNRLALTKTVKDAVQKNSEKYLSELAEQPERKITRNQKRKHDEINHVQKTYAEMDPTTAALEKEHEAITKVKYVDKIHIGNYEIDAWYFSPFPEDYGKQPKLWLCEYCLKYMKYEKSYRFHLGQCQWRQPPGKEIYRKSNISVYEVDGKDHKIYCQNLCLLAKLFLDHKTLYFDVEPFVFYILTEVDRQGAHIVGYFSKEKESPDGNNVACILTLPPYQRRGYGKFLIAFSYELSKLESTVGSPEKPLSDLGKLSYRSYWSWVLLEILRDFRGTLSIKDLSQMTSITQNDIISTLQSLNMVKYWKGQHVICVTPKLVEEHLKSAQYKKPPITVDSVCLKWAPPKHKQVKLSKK
UniProt Q92845: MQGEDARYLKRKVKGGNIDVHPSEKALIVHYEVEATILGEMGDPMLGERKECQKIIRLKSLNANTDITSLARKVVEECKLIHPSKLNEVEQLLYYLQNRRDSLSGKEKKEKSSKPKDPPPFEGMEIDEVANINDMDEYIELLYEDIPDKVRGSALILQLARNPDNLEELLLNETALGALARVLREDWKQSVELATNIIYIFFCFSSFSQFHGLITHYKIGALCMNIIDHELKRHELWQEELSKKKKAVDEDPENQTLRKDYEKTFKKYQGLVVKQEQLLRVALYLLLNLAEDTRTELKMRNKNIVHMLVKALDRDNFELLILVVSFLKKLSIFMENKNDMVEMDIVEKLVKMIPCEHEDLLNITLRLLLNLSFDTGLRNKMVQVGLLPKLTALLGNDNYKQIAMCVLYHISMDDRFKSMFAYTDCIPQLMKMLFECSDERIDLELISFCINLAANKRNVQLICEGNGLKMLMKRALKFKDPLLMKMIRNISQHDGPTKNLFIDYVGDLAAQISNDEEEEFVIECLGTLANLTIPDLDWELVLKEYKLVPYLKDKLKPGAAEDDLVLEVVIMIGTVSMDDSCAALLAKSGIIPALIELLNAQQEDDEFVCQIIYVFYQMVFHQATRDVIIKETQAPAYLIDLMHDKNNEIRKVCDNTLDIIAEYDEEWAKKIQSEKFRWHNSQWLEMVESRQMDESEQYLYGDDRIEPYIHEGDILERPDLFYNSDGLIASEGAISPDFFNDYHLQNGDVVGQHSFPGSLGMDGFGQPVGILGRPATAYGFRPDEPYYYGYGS
UniProt O43731: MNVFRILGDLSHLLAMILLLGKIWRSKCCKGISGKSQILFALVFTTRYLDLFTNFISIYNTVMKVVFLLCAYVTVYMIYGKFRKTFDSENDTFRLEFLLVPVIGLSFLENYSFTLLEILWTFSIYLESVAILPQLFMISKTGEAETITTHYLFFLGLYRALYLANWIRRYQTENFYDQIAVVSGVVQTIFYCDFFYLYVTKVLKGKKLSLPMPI

How the values were obtained:
Assay in all cases: log2 fold change, soluble protein after heating vs DMSO (PISA); higher = thermal stabilisation; K562 cells, 10 uM, 30 min; active = over 0.2 and 3.5 SD of the protein, either way, in both replicates (recomputed)
filanesib = compound: CON(C)C(=O)N1N=C(c2cc(F)ccc2F)S[C@@]1(CCCN)c1ccccc1 [filanesib]
In short: (§1)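 K562 cells at 2×10^6 cells/mL were given 10 μM compound for 30 min. Aliquots then went through 3 min of heating across 48°C-58°C, were pooled, and were extracted in PBS with 0.5% NP-40 at 4°C, and the supernatant after 21,000xg for 90 min was quantified by TMTpro 16plex LC-MS/MS with channel sums equalised. Thermal stability relative to control samples, from duplicates, is given as log2 fold change.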

zotarolimus = compound: CO[C@H]1C[C@@H]2CC[C@@H](C)[C@@](O)(O2)C(=O)C(=O)N2CCCC[C@H]2C(=O)O[C@H]([C@H](C)C[C@@H]2CC[C@H](n3cnnn3)[C@H](OC)C2)CC(=O)[C@H](C)/C=C(\C)[C@@H](O)[C@@H](OC)C(=O)[C@H](C)C[C@H](C)/C=C/C=C/C=C/1C [zotarolimus]
In short: as §1

[1] = compound: COc1cc2nc(-c3cc(F)ccc3O)nc(N[C@@H]3CNC[C@H]3C(C)(C)O)c2cc1OC
In short: as §1

gefitinib = compound: COc1cc2ncnc(Nc3ccc(F)c(Cl)c3)c2cc1OCCCN1CCOCC1 [gefitinib]
In short: as §1

lapatinib = compound: CS(=O)(=O)CCNCc1ccc(-c2ccc3ncnc(Nc4ccc(OCc5cccc(F)c5)c(Cl)c4)c3c2)o1 [lapatinib]
In short: as §1

pictilisib = compound: CS(=O)(=O)N1CCN(Cc2cc3nc(-c4cccc5[nH]ncc45)nc(N4CCOCC4)c3s2)CC1 [pictilisib]
In short: as §1

[2] = compound: CS(=O)(=O)c1ccc(-c2cnc(N)c(C(=O)Nc3ccccc3)n2)cc1
In short: as §1

[3] = compound: C[C@@H]1COCCN1C2=NC(=NC(=C2)C3(CC3)S(=O)(=O)C)C4=C5C=CNC5=CC=C4
In short: as §1

[4] = compound: C[C@H](C1=CC=C(C=C1)C(=O)NC2=C3C=CNC3=NC=C2)N
In short: as §1

duvelisib = compound: C[C@H](Nc1ncnc2nc[nH]c12)c1cc2cccc(Cl)c2c(=O)n1-c1ccccc1 [duvelisib]
In short: as §1

gandotinib = compound: Cc1cc(Nc2cc(CN3CCOCC3)c3nc(C)c(Cc4ccc(Cl)cc4F)n3n2)n[nH]1 [gandotinib]
In short: as §1

[5] = compound: Cc1cc(SCc2sc(-c3ccc(C(F)(F)F)cc3)nc2C)ccc1OCC(=O)O
In short: as §1

ispinesib = compound: Cc1ccc(C(=O)N(CCCN)[C@@H](c2nc3cc(Cl)ccc3c(=O)n2Cc2ccccc2)C(C)C)cc1 [ispinesib]
In short: as §1

idasanutlin = compound: COc1cc(C(=O)O)ccc1NC(=O)[C@@H]1N[C@@H](CC(C)(C)C)[C@](C#N)(c2ccc(Cl)cc2F)[C@H]1c1cccc(Cl)c1F [idasanutlin]
In short: as §1

alisertib = compound: COc1cc(Nc2ncc3c(n2)-c2ccc(Cl)cc2C(c2c(F)cccc2OC)=NC3)ccc1C(=O)O [alisertib]
In short: as §1

[6] = compound: COc1cccc2cc(-c3nc([C@H]4CC[C@H](C(=O)O)CC4)n4ncnc(N)c34)[nH]c12
In short: as §1

tozasertib = compound: Cc1cc(Nc2cc(N3CCN(C)CC3)nc(Sc3ccc(NC(=O)C4CC4)cc3)n2)n[nH]1 [tozasertib]
In short: as §1

[7] = compound: COC1=CC=C(C=C1)CN2C=CC3=C2C=C(C=C3)C(=O)NO
In short: as §1

crizotinib = compound: C[C@@H](Oc1cc(-c2cnn(C3CCNCC3)c2)cnc1N)c1c(Cl)ccc(F)c1Cl [crizotinib]
In short: as §1

doramapimod = compound: Cc1ccc(-n2nc(C(C)(C)C)cc2NC(=O)Nc2ccc(OCCN3CCOCC3)c3ccccc23)cc1 [doramapimod]
In short: as §1

Measured: log2 fold change

KRIT1 (UniProt O00522)
inactive: filanesib 0.062 | zotarolimus 0.126 | [1] 0.237 | gefitinib 0.38 | lapatinib -0.032 | pictilisib 0.084 | [2] 0.179 | [3] -0.2 | [4] 0.202 | duvelisib 0.078 | gandotinib -0.129 | [5] -0.145 | ispinesib -0.061

KLHL18 (UniProt O94889)
active: gandotinib -0.561
inactive: filanesib 0 | zotarolimus 0.022 | idasanutlin -0.048 | alisertib -0.068 | [1] -0.048 | gefitinib 0.057 | [6] 0.038 | lapatinib 0.071 | pictilisib 0.09 | [2] 0.092 | [3] 0.078 | [4] -0.084 | [5] 0.02 | ispinesib 0.028

KCTD21 (UniProt Q4G0X4)
inactive: filanesib -0.06 | idasanutlin -0.267 | [2] 0.11

KIFC3 isoform 6 (UniProt Q9BVG8)
inactive: filanesib 0.077 | alisertib 0.346 | gefitinib 0.044 | [6] 0.245 | pictilisib 0.369 | [2] 0.112 | [3] 0.165 | gandotinib 0.082 | tozasertib -0.116 | ispinesib -0.27

KLHL7 (UniProt Q8IXQ5)
inactive: filanesib 0.016 | zotarolimus 0.208 | idasanutlin -0.165 | [1] -0.021 | gefitinib 0.181 | lapatinib -0.038 | [2] -0.047 | [3] 0.037 | [4] -0.097 | duvelisib -0.064 | [5] 0.077

KIF13A isoform 4 (UniProt Q9H1H9)
inactive: filanesib -0.684 | zotarolimus 0.03 | idasanutlin -0.081 | [2] -0.363 | [4] -0.019

KAT7 (UniProt O95251)
inactive: [7] 0.454 | filanesib -0.065 | idasanutlin 0.156 | alisertib -0.09 | [1] 0.298 | gefitinib 0.031 | [6] 0.021 | lapatinib 0.032 | [2] 0.286 | crizotinib 0.063 | doramapimod -0.029 | ispinesib 0.014

KCNH2 (UniProt Q12809)
inactive: filanesib 0.006 | zotarolimus 0.036 | alisertib 0.017 | [1] -0.082 | [6] -0.271 | lapatinib -0.084 | crizotinib -0.155 | [3] -0.097 | [4] 0.561 | duvelisib 0.041 | [5] 0.084 | doramapimod 0.163

KAT8 isoform 2 (UniProt Q9H7Z6)
inactive: filanesib -0.001 | zotarolimus -0.188 | idasanutlin 0.002 | alisertib 0.069 | [1] 0 | gefitinib 0.027 | [6] 0.036 | lapatinib -0.058 | pictilisib 0.101 | [2] -0.009 | [4] -0.07 | duvelisib 0.071 | gandotinib -0.05 | tozasertib 0.017 | [5] -0.132 | ispinesib -0.096

Copied from the entries so far (2 entries):
KAT7 (UniProt O95251)
inactive: [7] 0.454 | filanesib -0.065 | idasanutlin 0.156 | alisertib -0.09 | [1] 0.298 | gefitinib 0.031 | [6] 0.021 | lapatinib 0.032 | [2] 0.286 | crizotinib 0.063 | doramapimod -0.029 | ispinesib 0.014

KCNH2 (UniProt Q12809)
inactive: filanesib 0.006 | zotarolimus 0.036 | alisertib 0.017 | [1] -0.082 | [6] -0.271 | lapatinib -0.084 | crizotinib -0.155 | [3] -0.097 | [4] 0.561 | duvelisib 0.041 | [5] 0.084 | doramapimod 0.163

The list continues:

KIFAP3 (UniProt Q92845)
inactive: [7] 0.17 | gefitinib -0.1 | crizotinib -0.111 | [3] -0.173 | doramapimod 0.127

ITSN1 (UniProt Q15811)
inactive: filanesib -0.005 | idasanutlin -0.038 | alisertib 0.028 | [1] 0.042 | [6] 0.113 | lapatinib -0.02 | pictilisib 0.18 | [2] -0.037 | [3] -0.079 | gandotinib 0.126

JMJD4 (UniProt Q9H9V9)
inactive: [7] 0.091 | filanesib 0.159 | idasanutlin -0.092 | [1] 0.108 | gefitinib 0.028 | lapatinib -0.026 | [2] -0.189 | crizotinib -0.206 | duvelisib -0.233 | [5] 0.053 | doramapimod -0.008

KDELR3 (UniProt O43731)
inactive: [7] -0.037 | idasanutlin 0.012 | alisertib -0.086 | gefitinib -0.103 | [6] 0.432 | crizotinib 0.059 | duvelisib 0.082 | tozasertib -0.052 | [5] -0.09 | doramapimod -0.07
